Some of these results come from one statement about several compounds together.
Molecular target: T1, human motilin receptor (GPR38) (Homo sapiens, UniProt O43193)
T1 construct: expressed in transfected cells; host or cells: CHO-K1
Experiment: GPR38 (Motilin Receptor) Functional Assay, NFAT-beta-lactamase reporter in CHO-K1 cells
Format: cell-based
Conditions: read-out: EC50 (agonistic activity) in the functional assay; CHO-K1 cell line stably transfected with NFAT-beta-lactamase reporter and human motilin receptor gene
Protocol: The potencies and efficacies of the compounds of this invention for GPR38 can be determined by reporter assay performed on the human cloned receptor as described herein.
GPR38 (Motilin Receptor) Functional Assay
A CHO-K1 cell line stably transfected NFAT-beta-lactamase reporter and human motilin receptor gene was used. The cells were cultured in culture medium (Dulbecco's modified eagle medium containing 10% fetal bovine serum, 1 mM sodium pyruvate, 0.1 mM MEM nonessential amino acids, 25 mM HEPES buffer, 50 units/mL penicillin, 50 microg/mL streptomycin, 100 microg/mL zeocin, and 500 microg/mL G418). The cells were harvested with 0.05% trypsin EDTA and centrifuged. The cell pellets were resuspended in the culture medium and plated into a black/clear bottom 384-well plate at a density of 8000 cells per well, then incubated at 37° C. with 5% CO2 for over night (about 20 hours). On the day of assay, the culture medium was aspirated and 20 microL of assay medium (Dulbecco's modified eagle medium containing 100 units/mL penicillin and 100 microg/mL streptomycin) was added to each well, then the cell plates were placed in incubator at 37° C. with 5% CO2 for 1.5 hours. Compounds were prepared in 100% DMSO and these were diluted to 5× of final concentration with assay buffer (Hanks balanced salt solution, 20 mM HEPES, and 0.1% BSA), then dispensed into 384-well plate (5 microL/well). After incubation at 37° C. with 5% CO2 for 4.5 hours, CCF4-AM loading solution (Invitrogen Corp.) was added to each well. After incubation for 2 hours at room temperature, fluorescence intensities were measured by using plate reader FDSS (Hamamatsu Photonics K. K.) with excitation 400 nm, emission 465 nm/540 nm. Agonistic activity (EC50) was calculated from the sigmoidal dose-response curve using GraphPad Prism software (GraphPad Software, Inc.).

Protein sequences, listed by entry. Tags and fused reporters are not part of them. Lines headed by an entry give the natural chain unless they say otherwise; changes in a name come on top.
UniProt O43193: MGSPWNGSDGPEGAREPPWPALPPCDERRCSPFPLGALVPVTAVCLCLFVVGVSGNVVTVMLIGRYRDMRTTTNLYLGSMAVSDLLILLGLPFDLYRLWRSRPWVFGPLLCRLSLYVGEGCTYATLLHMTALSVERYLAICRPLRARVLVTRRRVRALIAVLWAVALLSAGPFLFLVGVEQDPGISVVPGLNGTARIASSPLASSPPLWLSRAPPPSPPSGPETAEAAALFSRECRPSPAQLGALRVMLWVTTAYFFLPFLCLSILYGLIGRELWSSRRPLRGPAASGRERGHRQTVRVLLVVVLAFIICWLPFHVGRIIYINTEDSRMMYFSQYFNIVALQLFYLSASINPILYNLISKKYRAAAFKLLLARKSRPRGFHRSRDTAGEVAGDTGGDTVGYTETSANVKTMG

Structure (SMILES)	EC50 [nM]
CN[C@@H]1CC[C@H](C(=O)N[C@@H](Cc2ccc(F)cc2)C(=O)N2CCC(N3C(=O)C(C)(C)c4ccccc43)CC2)C1 [Example 27, (1S,3R)-N-((S)-1-(4-(3,3-dimethyl-2-oxoindolin-1-yl)piperidin-1-yl)-3-(4-fluorophenyl)-1-oxopropan-2-yl)-3-(methylamino)cyclopentane-carboxamide]	≤ 100
CN[C@@H]1CC[C@H](C(=O)N[C@@H](Cc2cccc(F)c2)C(=O)N2CCC(N3C(=O)C(C)(C)c4ccccc43)CC2)C1 [Example 28, (1S,3R)-N-((S)-1-(4-(3,3-dimethyl-2-oxoindolin-1-yl)piperidin-1-yl)-3-(3-fluorophenyl)-1-oxopropan-2-yl)-3-(methylamino)cyclopentane-carboxamide]	≤ 100
CN[C@@H]1CC[C@H](C(=O)N[C@@H](Cc2ccccc2)C(=O)N2CCC(N3C(=O)C(C)(C)c4ccccc43)CC2)C1 [Example 30, (1S,3R)-N-((S)-1-(4-(3,3-dimethyl-2-oxoindolin-1-yl)piperidin-1-yl)-1-oxo-3-phenylpropan-2-yl)-3-(methylamino) cyclopentanecarboxamide]	≤ 100
CN[C@@H]1CC[C@H](C(=O)N[C@@H](Cc2cccc(OC)c2)C(=O)N2CCC(N3C(=O)C(C)(C)c4ccccc43)CC2)C1 [Example 31, (1S,3R)-N-((S)-1-(4-(3,3-dimethyl-2-oxoindolin-1-yl)piperidin-1-yl)-3-(3-methoxyphenyl)-1-oxopropan-2-yl)-3-(methylamino)cyclopentane-carboxamide]	≤ 100
CN[C@@H]1CC[C@H](C(=O)N[C@@H](Cc2ccccc2F)C(=O)N2CCC(N3C(=O)C(C)(C)c4ccccc43)CC2)C1 [Example 32, (1S,3R)-N-((S)-1-(4-(3,3-dimethyl-2-oxoindolin-1-yl)piperidin-1-yl)-3-(2-fluorophenyl)-1-oxopropan-2-yl)-3-(methylamino)cyclopentane-carboxamide]	≤ 100
CN[C@@H]1CC[C@H](C(=O)N[C@@H](CC(C)C)C(=O)N2CCC(N3C(=O)C(C)(C)c4ccccc43)CC2)C1 [Example 33, (1S,3R)-N-((S)-1-(4-(3,3-dimethyl-2-oxoindolin-1-yl)piperidin-1-yl)-4-methyl-1-oxopentan-2-yl)-3-(methylamino) cyclopentanecarboxamide]	≤ 100
CN[C@@H]1CC[C@H](C(=O)N[C@@H](Cc2c[nH]c3ccccc23)C(=O)N2CCC(N3C(=O)C(C)(C)c4ccccc43)CC2)C1 [Example 34, (1S,3R)-N-((S)-1-(4-(3,3-dimethyl-2-oxoindolin-1-yl)piperidin-1-yl)-3-(1H-indol-3-yl)-1-oxopropan-2-yl)-3-(methylamino)cyclopentane-carboxamide]	≤ 100
CN[C@@H]1CC[C@H](C(=O)N[C@@H](Cc2ccc(OC)cc2)C(=O)N2CCC(N3C(=O)C(C)(C)c4ccccc43)CC2)C1 [Example 37, (1S,3R)-N-((S)-1-(4-(3,3-dimethyl-2-oxoindolin-1-yl)piperidin-1-yl)-3-(4-methoxyphenyl)-1-oxopropan-2-yl)-3-(methylamino)cyclopentanecarboxamide]	≤ 100
CN[C@@H]1CC[C@H](C(=O)N[C@@H](COc2ccccc2)C(=O)N2CCC(N3C(=O)C(C)(C)c4ccccc43)CC2)C1 [Example 38, (1S,3R)-N-((S)-1-(4-(3,3-dimethyl-2-oxoindolin-1-yl)piperidin-1-yl)-1-oxo-3-phenoxypropan-2-yl)-3-(methyl-amino)cyclopentanecarboxamide]	≤ 100
CN[C@@H]1CC[C@H](C(=O)N[C@H](CC(=O)N2CCC(N3C(=O)C(C)(C)c4ccccc43)CC2)Cc2ccccc2)C1 [Example 43, (1S,3R)-N-((S)-4-(4-(3,3-dimethyl-2-oxoindolin-1-yl)piperidin-1-yl)-4-oxo-1-phenylbutan-2-yl)-3-(methylamino) cyclopentanecarboxamide]	≤ 100
CN[C@@H]1CC[C@H](C(=O)N[C@@H](CCc2ccccc2)C(=O)N2CCC(N3C(=O)C(C)(C)c4cc(F)ccc43)CC2)C1 [Example 45, (1S,3R)-N-((S)-1-(4-(5-fluoro-3,3-dimethyl-2-oxoindolin-1-yl)piperidin-1-yl)-1-oxo-4-phenylbutan-2-yl)-3-(methylamino)cyclopentane-carboxamide]	≤ 100
CNC(C)(C)CC(=O)N[C@@H](CCc1ccccc1)C(=O)N1CCC(N2C(=O)C(C)(C)c3cc(F)ccc32)CC1 [Example 46, (S)-N-(1-(4-(5-fluoro-3,3-dimethyl-2-oxoindolin-1-yl)piperidin-1-yl)-1-oxo-4-phenylbutan-2-yl)-3-methyl-3-(methylamino)butanamide]	≤ 100
CC1(C)C(=O)N(C2CCN(C(=O)[C@H](CCc3ccccc3)NC(=O)N[C@@H]3CCCNC3)CC2)c2ccccc21 [Example 49, 1-((S)-1-(4-(3,3-dimethyl-2-oxo-indolin-1-yl)piperidin-1-yl)-1-oxo-4-phenylbutan-2-yl)-3-((R)-piperidin-3-yl)urea]	≤ 100
CC1(C)C(=O)N(C2CCN(C(=O)[C@H](CCc3ccccc3)NC(=O)NC[C@H]3CCCN3)CC2)c2ccccc21 [Example 51, 1-((S)-1-(4-(3,3-dimethyl-2-oxo-indolin-1-yl)piperidin-1-yl)-1-oxo-4-phenylbutan-2-yl)-3-((R)-pyrrolidin-2-ylmethyl)urea]	≤ 100
CC1(C)C(=O)N(C2CCN(C(=O)[C@H](CCc3ccccc3)NC(=O)N[C@@H]3CCNC3)CC2)c2ccccc21 [Example 52, 1-((S)-1-(4-(3,3-dimethyl-2-oxo-indolin-1-yl)piperidin-1-yl)-1-oxo-4-phenylbutan-2-yl)-3-((R)-pyrrolidin-3-yl)urea]	≤ 100
CC1(C)C(=O)N(C2CCN(C(=O)[C@H](CCc3ccccc3)NC(=O)NC[C@@H]3CCNC3)CC2)c2ccccc21 [Example 53, 1-((S)-1-(4-(3,3-dimethyl-2-oxo-indolin-1-yl)piperidin-1-yl)-1-oxo-4-phenylbutan-2-yl)-3-((R)-pyrrolidin-3-ylmethyl)urea]	≤ 100
CCC1(NC(=O)N[C@@H](CCc2ccccc2)C(=O)N2CCC(N3C(=O)C(C)(C)c4ccccc43)CC2)CCNCC1 [Example 55, (S)-1-(1-(4-(3,3-dimethyl-2-oxo-indolin-1-yl)piperidin-1-yl)-1-oxo-4-phenylbutan-2-yl)-3-(4-ethylpiperidin-4-yl)urea]	≤ 100
CC1(NC(=O)N[C@@H](CCc2ccccc2)C(=O)N2CCC(N3C(=O)C(C)(C)c4ccccc43)CC2)CCNCC1 [Example 56, (S)-1-(1-(4-(3,3-dimethyl-2-oxo-indolin-1-yl)piperidin-1-yl)-1-oxo-4-phenylbutan-2-yl)-3-(4-methyl-piperidin-4-yl)urea]	≤ 100
CC1(C)C(=O)N(C2CCN(C(=O)[C@H](CCc3ccccc3)NC(=O)N[C@H]3CCNC3)CC2)c2ccccc21 [Example 57, 1-((S)-1-(4-(3,3-dimethyl-2-oxo-indolin-1-yl)piperidin-1-yl)-1-oxo-4-phenylbutan-2-yl)-3-((S)-pyrrolidin-3-yl)urea]	≤ 100
CC1(C)C(=O)N(C2CCN(C(=O)[C@H](CCc3ccccc3)NC(=O)NC[C@@H]3CCCCN3)CC2)c2ccccc21 [Example 60, 1-((S)-1-(4-(3,3-dimethyl-2-oxo-indolin-1-yl)piperidin-1-yl)-1-oxo-4-phenylbutan-2-yl)-3-((S)-piperidin-2-ylmethyl)urea]	≤ 100
CC1(C)C(=O)N(C2CCN(C(=O)[C@H](CCc3ccccc3)NC(=O)NC[C@@H]3CCCNC3)CC2)c2ccccc21 [Example 61, 1-((S)-1-(4-(3,3-dimethyl-2-oxo-indolin-1-yl)piperidin-1-yl)-1-oxo-4-phenylbutan-2-yl)-3-((R)-piperidin-3-ylmethyl)urea]	≤ 100
CC(C)(N)CNC(=O)N[C@@H](CCc1ccccc1)C(=O)N1CCC(N2C(=O)C(C)(C)c3ccccc32)CC1 [Example 62, (S)-1-(2-amino-2-methylpropyl)-3-(1-(4-(3,3-dimethyl-2-oxoindolin-1-yl)piperidin-1-yl)-1-oxo-4-phenyl-butan-2-yl)urea]	≤ 100
CN(C1CC1)[C@H]1CCN(C(=O)N[C@@H](CCc2ccccc2)C(=O)N2CCC(N3C(=O)C(C)(C)c4ccccc43)CC2)C1 [Example 63, (S)-3-(cyclopropyl(methyl)amino)-N-((S)-1-(4-(3,3-dimethyl-2-oxo-indolin-1-yl)piperidin-1-yl)-1-oxo-4-phenylbutan-2-yl)pyrrolidine-1-carboxamide]	≤ 100
CN(C)[C@H]1CCN(C(=O)N[C@@H](CCc2ccccc2)C(=O)N2CCC(N3C(=O)C(C)(C)c4ccccc43)CC2)C1 [Example 67, (S)—N—((S)-1-(4-(3,3-dimethyl-2-oxoindolin-1-yl)piperidin-1-yl)-1-oxo-4-phenylbutan-2-yl)-3-(dimethylamino)pyrrolidine-1-carboxamide]	≤ 100

Reference: patent publication US8697877B2, “Oxyindole derivatives with motilin receptor agonistic activity” (RaQualia Pharma Inc., priority 2009, dated 2014)
